Data as given in PubChem BioAssay AID1259263 (Sanger Institute, 2017).
The deposit covers 160 reagents; this is a random part of them. 101 of all reagents (63%) count as active. 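Drug doses chosen to kill few cells alone; each row is one siRNA, and a gene counts as confirmed only if two or more siRNAs show synergy.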 A number with no mark means an inactive call. The numbers tell different reagents against one gene apart. Further read-outs or replicates are left out here. Not given: the amount of reagent, the time to read-out.

Assay: 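Find siRNA and drug combinations lethal together in bowel cancer cells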 (follow-up of hits)
System: SW1463 human colorectal cancer cell line
Reagents: single siRNA against human genes
Challenge: anchor drugs BYL719 at 1 µM, cetuximab at 5 µg/ml or trametinib at 10 nM, or DMSO vehicle, added one day after siRNA transfection
Detection: 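Viability relative to a non-targeting siRNA control, averaged over replicates, plus a synergy score contrasting measured with expected viability loss for knock-down and drug combined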
Direction: synergy score with trametinib and synergy score with BYL719 and synergy score with cetuximab: higher = stronger synthetic lethal effect with the drug
Call rule: 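Called active if the synergy score is above 0.10 for one or more of the three anchor drugs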
Calls: active = synergy with at least one drug; inactive = no synergy with any drug

For AK2 (GeneID 204) #1, how do the results read?
synergy score with trametinib: 0.148 (active); synergy score with BYL719: -0.152; synergy score with cetuximab: 0.148

With AK2 (GeneID 204) #2, what was measured?
synergy score with trametinib: 0.298 (active); synergy score with BYL719: -0.061; synergy score with cetuximab: -0.0202

What did the screen give for AK2 (GeneID 204) #3?
synergy score with trametinib: 0.0835; synergy score with BYL719: -0.0704; synergy score with cetuximab: -0.0539

What did the screen give for AK2 (GeneID 204) #4?
synergy score with trametinib: -0.0567; synergy score with BYL719: -0.381; synergy score with cetuximab: -0.146

Which result is listed for CDKN2D (GeneID 1032) #1?
synergy score with trametinib: 0.26 (active); synergy score with BYL719: -0.21; synergy score with cetuximab: -0.212

With CDKN2D (GeneID 1032) #2, what was measured?
synergy score with trametinib: 0.393 (active); synergy score with BYL719: 0.541; synergy score with cetuximab: 0.356

With CDKN2D (GeneID 1032) #3, how do the results read?
synergy score with trametinib: 0.366 (active); synergy score with BYL719: -0.0418; synergy score with cetuximab: 0.0352

With CDKN2D (GeneID 1032) #4, how do the results read?
synergy score with trametinib: 0.133 (active); synergy score with BYL719: 0.201; synergy score with cetuximab: 0.297

With PIM1 (GeneID 5292) #1, how do the results read?
synergy score with trametinib: 0.34 (active); synergy score with BYL719: 0.0415; synergy score with cetuximab: 0.0366

With PIM1 (GeneID 5292) #2, how do the results read?
synergy score with trametinib: 0.189 (active); synergy score with BYL719: 0.106; synergy score with cetuximab: 0.0874

What did the screen give for PIM1 (GeneID 5292) #3?
synergy score with trametinib: 0.0353; synergy score with BYL719: -0.0704; synergy score with cetuximab: -0.00937

How did the screen score PIM1 (GeneID 5292) #4?
synergy score with trametinib: 0.207 (active); synergy score with BYL719: 0.121; synergy score with cetuximab: 0.104

2 of these entries in another layout.
{"target gene":"AK2 (GeneID 204)","siRNA no.":3,"synergy score with trametinib":0.0835,"synergy score with BYL719":-0.0704,"synergy score with cetuximab":-0.0539}
{"target gene":"AK2 (GeneID 204)","siRNA no.":4,"synergy score with trametinib":-0.0567,"synergy score with BYL719":-0.381,"synergy score with cetuximab":-0.146}

Additional results follow.
With MARK3 (GeneID 4140) #1, what does the deposit list?
synergy score with trametinib: 0.202 (active); synergy score with BYL719: -0.161; synergy score with cetuximab: 0.156

What did the screen give for MARK3 (GeneID 4140) #2?
synergy score with trametinib: 0.0549; synergy score with BYL719: -0.00799; synergy score with cetuximab: 0.0846

Which result is listed for MARK3 (GeneID 4140) #3?
synergy score with trametinib: 0.216 (active); synergy score with BYL719: -0.225; synergy score with cetuximab: 0.00963

For MARK3 (GeneID 4140) #4, what does the deposit list?
synergy score with trametinib: 0.207 (active); synergy score with BYL719: -0.176; synergy score with cetuximab: -0.0848

For PLK1 (GeneID 5347) #1, what was measured?
synergy score with trametinib: 0.163 (active); synergy score with BYL719: 0.233; synergy score with cetuximab: -0.00142

With PLK1 (GeneID 5347) #2, what does the deposit list?
synergy score with trametinib: -0.0592; synergy score with BYL719: -0.0787; synergy score with cetuximab: -0.0962

How did the screen score PLK1 (GeneID 5347) #3?
synergy score with trametinib: 0.0923; synergy score with BYL719: 0.0719; synergy score with cetuximab: -0.0333

What is on record for PLK1 (GeneID 5347) #4?
synergy score with trametinib: -0.0725; synergy score with BYL719: -0.118; synergy score with cetuximab: 0.0552
